The list shows only some results of the screen, not a fair sample: its compounds were picked by chemical class. Other doses and runs of a compound may be missing. T/C: endpoint of the treated group in % of that of the vehicle group. Where survival is the endpoint, this PubChem deposit counts one and a half times the control or more as active, and values a quarter to a half above the control carry no call in these data; other NCI protocols may use other cut-offs. Schedule codes are those of the source, read here as Q, the interval in days (D) or hours (H), X, the number of doses. Some T/C values are marked as having no survivor count here; that says nothing about deaths at the dose.
Tested on: CD2F1 mice, AMSA-resistant P388 leukemia ip, median survival T/C
Assay: NCI In Vivo Anticancer Drug Screen. Data for tumor model P388 Leukemia resistant to AMSA; NSC 249992 (intraperitoneal) in CD2F1 (CDF1) mice
Conditions: T/C endpoint: median survival time, schedule: Q04DX003 (ip), vehicle: saline, higher T/C = longer survival
Experimental: The antitumor activity of compounds was measured in mice bearing transplantable tumors. Survival or tumor size were measured and the results are expressed as the measurement made in the treated group (T) divided by the measurement made in the vehicle treated control group (C). The tumor model used in this assay is P388 Leukemia resistant to AMSA; NSC 249992 (intraperitoneal) in CD2F1 (CDF1) mice

**Q.** With CC(=O)OCC12CCC(C)=CC1OC1C(O)C(OC(C)=O)C2(C)C12CO2 (stereo not drawn) as the compound, how does the T/C (dose: 2.59 mg/kg/injection) read?
**A.** The T/C was 150 % of control [survivor count not shown].

**Q.** What about the T/C (dose: 4.32 mg/kg/injection) of the same compound?
**A.** The T/C was 155 % of control [survivor count not shown].

**Q.** And the T/C (dose: 7.2 mg/kg/injection)?
**A.** The T/C was 156 % of control [survivor count not shown].

— PubChem BioAssay AID324 (DTP/NCI, 2004)
